These results are taken from article doi:10.1101/2020.01.30.927038.

Sequences of proteins named here, by UniProt entry; tags and fusion partners are left off. Residues count along the entry.
UniProt Q9Y4K0, residues 26-774: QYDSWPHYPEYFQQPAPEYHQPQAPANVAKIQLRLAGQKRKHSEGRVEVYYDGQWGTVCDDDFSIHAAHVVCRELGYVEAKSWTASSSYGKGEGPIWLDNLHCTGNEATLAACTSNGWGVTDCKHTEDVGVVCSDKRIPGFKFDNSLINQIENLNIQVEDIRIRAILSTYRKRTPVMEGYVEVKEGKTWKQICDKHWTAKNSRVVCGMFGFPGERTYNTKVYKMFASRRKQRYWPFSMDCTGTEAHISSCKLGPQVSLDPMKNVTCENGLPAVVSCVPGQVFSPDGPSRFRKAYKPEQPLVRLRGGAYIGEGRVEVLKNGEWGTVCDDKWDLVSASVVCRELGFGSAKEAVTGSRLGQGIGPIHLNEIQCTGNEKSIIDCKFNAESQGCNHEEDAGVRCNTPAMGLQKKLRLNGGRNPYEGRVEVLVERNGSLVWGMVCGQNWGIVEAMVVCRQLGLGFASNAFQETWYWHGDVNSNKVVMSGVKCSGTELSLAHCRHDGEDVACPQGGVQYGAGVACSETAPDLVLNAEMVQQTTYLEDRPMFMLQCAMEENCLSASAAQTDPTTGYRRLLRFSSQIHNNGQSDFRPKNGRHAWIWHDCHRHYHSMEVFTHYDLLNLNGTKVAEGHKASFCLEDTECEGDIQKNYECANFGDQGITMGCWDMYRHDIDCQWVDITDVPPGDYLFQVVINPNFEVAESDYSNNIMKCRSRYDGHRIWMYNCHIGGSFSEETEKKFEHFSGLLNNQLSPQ
UniProt Q16531: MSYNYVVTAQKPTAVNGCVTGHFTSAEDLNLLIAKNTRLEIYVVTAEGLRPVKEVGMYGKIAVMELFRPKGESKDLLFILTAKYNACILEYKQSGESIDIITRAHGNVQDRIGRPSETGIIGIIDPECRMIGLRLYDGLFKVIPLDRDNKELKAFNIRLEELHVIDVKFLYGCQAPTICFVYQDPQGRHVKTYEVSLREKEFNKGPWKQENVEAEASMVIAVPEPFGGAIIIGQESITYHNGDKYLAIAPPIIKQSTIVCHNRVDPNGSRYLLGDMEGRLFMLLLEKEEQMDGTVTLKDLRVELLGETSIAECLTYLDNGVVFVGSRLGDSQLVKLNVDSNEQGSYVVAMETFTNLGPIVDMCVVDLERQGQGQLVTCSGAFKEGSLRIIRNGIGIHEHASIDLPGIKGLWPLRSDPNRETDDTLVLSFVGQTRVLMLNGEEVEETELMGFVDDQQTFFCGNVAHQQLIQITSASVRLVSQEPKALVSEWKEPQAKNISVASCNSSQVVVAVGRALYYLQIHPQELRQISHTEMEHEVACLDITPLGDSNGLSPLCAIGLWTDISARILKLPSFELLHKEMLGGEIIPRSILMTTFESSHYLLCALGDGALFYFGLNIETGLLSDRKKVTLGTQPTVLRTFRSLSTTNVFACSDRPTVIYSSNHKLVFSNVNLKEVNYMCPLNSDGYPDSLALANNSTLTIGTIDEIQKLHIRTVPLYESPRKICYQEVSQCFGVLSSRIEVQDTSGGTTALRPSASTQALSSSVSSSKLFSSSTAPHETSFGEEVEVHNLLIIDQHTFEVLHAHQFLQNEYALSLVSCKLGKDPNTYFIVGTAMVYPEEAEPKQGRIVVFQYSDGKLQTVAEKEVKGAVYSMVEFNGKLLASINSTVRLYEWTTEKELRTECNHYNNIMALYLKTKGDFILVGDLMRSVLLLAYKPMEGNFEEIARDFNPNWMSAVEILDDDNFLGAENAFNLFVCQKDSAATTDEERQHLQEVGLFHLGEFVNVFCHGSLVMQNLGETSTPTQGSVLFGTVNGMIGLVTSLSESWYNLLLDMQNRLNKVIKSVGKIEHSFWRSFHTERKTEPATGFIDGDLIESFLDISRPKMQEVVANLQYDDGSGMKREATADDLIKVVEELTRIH
UniProt Q9NPF5: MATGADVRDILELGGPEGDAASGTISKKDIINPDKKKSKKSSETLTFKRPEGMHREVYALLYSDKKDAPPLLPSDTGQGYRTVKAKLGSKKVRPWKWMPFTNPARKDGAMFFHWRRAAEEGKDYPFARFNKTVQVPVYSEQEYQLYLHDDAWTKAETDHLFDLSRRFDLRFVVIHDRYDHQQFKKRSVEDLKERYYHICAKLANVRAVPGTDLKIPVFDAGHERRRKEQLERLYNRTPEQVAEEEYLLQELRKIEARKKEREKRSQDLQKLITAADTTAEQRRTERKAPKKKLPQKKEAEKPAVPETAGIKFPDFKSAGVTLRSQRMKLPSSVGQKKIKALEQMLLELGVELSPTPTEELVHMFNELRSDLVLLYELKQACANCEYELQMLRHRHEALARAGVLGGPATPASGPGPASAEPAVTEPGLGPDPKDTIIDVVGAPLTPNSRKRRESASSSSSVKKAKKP
UniProt Q13620: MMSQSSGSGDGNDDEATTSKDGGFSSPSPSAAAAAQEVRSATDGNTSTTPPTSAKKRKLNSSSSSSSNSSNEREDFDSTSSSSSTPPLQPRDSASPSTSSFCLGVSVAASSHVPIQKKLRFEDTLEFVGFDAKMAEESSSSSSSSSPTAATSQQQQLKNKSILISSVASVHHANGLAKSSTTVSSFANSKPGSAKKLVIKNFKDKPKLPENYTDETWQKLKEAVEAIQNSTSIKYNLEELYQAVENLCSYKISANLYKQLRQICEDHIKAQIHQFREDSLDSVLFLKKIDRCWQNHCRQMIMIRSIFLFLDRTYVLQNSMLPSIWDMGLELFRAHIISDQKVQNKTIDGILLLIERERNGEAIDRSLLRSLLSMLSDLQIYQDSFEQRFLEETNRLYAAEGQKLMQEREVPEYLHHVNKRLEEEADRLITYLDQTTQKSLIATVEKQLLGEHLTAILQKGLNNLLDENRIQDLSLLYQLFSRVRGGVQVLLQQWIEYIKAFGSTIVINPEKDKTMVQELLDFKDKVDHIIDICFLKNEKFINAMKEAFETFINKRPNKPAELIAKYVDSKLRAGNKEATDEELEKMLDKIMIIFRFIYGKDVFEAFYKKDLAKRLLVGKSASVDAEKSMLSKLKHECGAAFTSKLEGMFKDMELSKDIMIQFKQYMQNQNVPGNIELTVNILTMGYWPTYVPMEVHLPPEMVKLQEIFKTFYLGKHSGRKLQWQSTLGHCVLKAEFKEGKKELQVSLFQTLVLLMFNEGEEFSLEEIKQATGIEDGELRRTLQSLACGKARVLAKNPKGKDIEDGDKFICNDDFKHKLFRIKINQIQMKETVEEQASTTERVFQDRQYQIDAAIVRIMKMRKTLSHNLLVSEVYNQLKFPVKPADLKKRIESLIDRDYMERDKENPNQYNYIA
UniProt Q9Y265: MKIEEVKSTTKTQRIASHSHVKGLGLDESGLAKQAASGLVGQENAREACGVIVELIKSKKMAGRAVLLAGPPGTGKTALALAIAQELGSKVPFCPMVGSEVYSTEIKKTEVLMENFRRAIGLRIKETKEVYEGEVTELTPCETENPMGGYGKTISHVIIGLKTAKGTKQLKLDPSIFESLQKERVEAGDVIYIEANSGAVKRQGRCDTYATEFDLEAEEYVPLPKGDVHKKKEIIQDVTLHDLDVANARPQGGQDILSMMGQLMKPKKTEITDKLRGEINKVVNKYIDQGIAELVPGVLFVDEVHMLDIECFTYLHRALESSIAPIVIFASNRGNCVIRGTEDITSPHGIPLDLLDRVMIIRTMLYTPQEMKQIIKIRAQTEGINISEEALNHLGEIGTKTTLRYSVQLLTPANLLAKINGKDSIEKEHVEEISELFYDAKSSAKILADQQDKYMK
UniProt O96019: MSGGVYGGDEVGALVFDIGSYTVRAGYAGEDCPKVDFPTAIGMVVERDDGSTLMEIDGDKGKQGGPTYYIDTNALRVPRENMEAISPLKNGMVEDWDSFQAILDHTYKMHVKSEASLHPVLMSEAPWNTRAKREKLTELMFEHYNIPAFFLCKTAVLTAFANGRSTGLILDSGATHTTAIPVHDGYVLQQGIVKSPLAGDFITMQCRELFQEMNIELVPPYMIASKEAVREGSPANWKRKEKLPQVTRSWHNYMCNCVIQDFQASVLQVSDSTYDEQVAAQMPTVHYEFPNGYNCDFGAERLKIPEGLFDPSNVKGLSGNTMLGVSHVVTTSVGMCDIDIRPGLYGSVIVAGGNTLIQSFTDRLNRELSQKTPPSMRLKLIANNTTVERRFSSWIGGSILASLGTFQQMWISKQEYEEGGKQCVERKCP

Results are given in words; binding and its absence hold for the method and conditions named. Binding seen in cells or lysates may run through a third protein. Some results given as binding are weak or reduced against the parent protein; the word gives no strength.

What all share (experiment): co-IP
Experiment [1] concerns the target LOXL2-FLAG (lysyl oxidase-like 2, wild type, from pcDNA3-hLOXL2wt-Flag) (human) (UniProt Q9Y4K0).
Experiment [2] deals with DNA damage-binding protein 1 (DDB1), endogenous (human (endogenous in MDA-MB-231)) (UniProt Q16531).
The target of experiment [3] is DNA damage-binding protein 1 (DDB1), endogenous (human (endogenous in MDA-MB-231)), Q16531. Conditions: remark: other sources report otherwise.

For the molecule DMAP1 (from UniProt Q9NPF5 1-467), the binding entry in experiment [1] is given as “binds”. As for CUL4B (from UniProt Q13620 1-913), the binding entry in experiment [2] is on record as “binds”. Turning to RUVBL1 (from UniProt Q9Y265 1-456), the binding result in experiment [1] was “binds”. Regarding BAF53 (from UniProt O96019 1-429), the binding result in experiment [1] was “binds”.

B1: RING1B, Q99496 1-336 (protein)
chain: MSQAVQTNGTQPLSKTWELSLYELQRTPQEAITDGLEIVVSPRSLHSELMCPICLDMLKNTMTTKECLHRFCADCIITALRSGNKECPTCRKKLVSKRSLRPDPNFDALISKIYPSRDEYEAHQERVLARINKHNNQQALSHSIEEGLKIQAMNRLQRGKKQQIENGSGAEDNGDSSHCSNASTHSNQEAGPSNKRTKTSDDSGLELDNNNAAMAIDPVMDGASEIELVFRPHPTLMEKDDSAQTRYIKTSGNATVDHLSKYLAVRLALEELRSKGESNQMNLDTASEKQYTIYIATASGQFTVLNGSFSLELVSEKYWKVNKPMELYYAPTKEHK
On to B1, for which the binding result in experiment [3] is recorded as “binds”.
